Residue numbers refer to the chain shown, from its start. Construct, isoform or probe ends are uncertain for at least one entry. At least one verdict rests on a figure or table, not on a statement of the authors. Where a protein sequence is shown, tags need not be part of it.
Experiments:
Test in all cases: EMSA
Details in all cases: similar to WT, Kd in Fig 8K; EMSA: 25 mM HEPES pH 7.5, 0.5 nM 32P-HJ, 37 C 15 min, 8% PAGE in TBE (25 mM Tris base pH 8.0, 25 mM boric acid, 0.5 mM EDTA) at …; recombinant protein; residues 1-605; protein details: His6 (pET28a); label: 5'-32P on HJ02; folded or branched DNA
[1] = target: T1, Hop1 K65A (Saccharomyces cerevisiae) (UniProt P20050)
T1 sequence (looked up): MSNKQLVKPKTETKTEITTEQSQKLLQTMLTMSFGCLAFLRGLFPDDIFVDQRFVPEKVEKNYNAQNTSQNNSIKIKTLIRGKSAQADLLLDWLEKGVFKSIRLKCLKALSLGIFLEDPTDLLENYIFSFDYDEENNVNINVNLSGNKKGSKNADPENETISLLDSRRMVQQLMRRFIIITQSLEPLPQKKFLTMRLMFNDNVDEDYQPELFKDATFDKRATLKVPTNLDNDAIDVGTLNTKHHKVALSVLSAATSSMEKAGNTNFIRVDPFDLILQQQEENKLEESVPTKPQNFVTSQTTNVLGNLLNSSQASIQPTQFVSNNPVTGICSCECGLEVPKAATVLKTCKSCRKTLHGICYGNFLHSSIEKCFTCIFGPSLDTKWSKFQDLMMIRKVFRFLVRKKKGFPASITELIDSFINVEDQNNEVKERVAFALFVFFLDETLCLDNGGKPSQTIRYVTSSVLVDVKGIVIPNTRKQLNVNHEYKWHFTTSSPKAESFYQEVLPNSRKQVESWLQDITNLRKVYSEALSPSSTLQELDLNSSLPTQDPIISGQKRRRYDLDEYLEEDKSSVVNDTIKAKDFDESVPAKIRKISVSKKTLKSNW

[2] = target: T2, Hop1 R352A (Saccharomyces cerevisiae) (UniProt P20050)
T2 sequence (looked up): T1 sequence (looked up) with A65K, R352A

[3] = target: T3, Hop1 N139Q (Saccharomyces cerevisiae) (UniProt P20050)
T3 sequence (looked up): T1 sequence (looked up) with A65K, N139Q

[4] = target: T4, Hop1 R558A (Saccharomyces cerevisiae) (UniProt P20050)
T4 sequence (looked up): T1 sequence (looked up) with A65K, R558A

[5] = target: T5, Hop1 N67Q (Saccharomyces cerevisiae) (UniProt P20050)
T5 sequence (looked up): T1 sequence (looked up) with A65K, N67Q

Measured: binding result

GACGCTGCCGAATTCTACCAGTGCCTTGCTAGGACATCTTTGCCCACCTGCCGGTTCACCC / TGGGTGAACCTGCAGGTGGGCAAAGATGTCCTAGCAATGTAATCGTCAAAGCTTTATGCCGTT / CAACGGCATAAAGCTTGACGATTACATTGCTAGGACATGCTGTCTAGAGGATCCGACTATCGA / ATCGATAGTCGGATCCTCTAGACAGCATGTCCTAGCAAGGCACTGGTAGAATTCGGCAGCGT [Holliday junction (HJ), 32P]
binds: all assays above

Reference: PMC11797056, “The ATPase activity of yeast chromosome axis protein Hop1 affects the frequency of meiotic crossovers” (Nucleic Acids Research, 2024)
